# Patent US20100003711A1, “Methods to identify therapeutic agents” (THE SCRIPPS RESEARCH INSTITUTE, priority 2005, published 2010)
# Test system: J774A.1 macrophages
# Assay: Cholesterol ozonation product uptake and localization by fluorescence microscopy
# Assay type: cell-based, murine
# Conditions: 50 μM dansyl derivatives, 5 min to 1 h, without LDL
row,SMILES,uptake and localization in macrophages
1,"C[C@H](CCCC(=O)NS(=O)(=O)c1cccc2c(N(C)C)cccc12)[C@H]1CCC2C3CC=C4C[C@@H](O)CCC4(C)C3CC[C@@]21C (stereo partly shown) [9d, reference compound]",minimal fluorescence
2,"CC(C)CCC[C@@H](C)[C@H]1CCC2C(CC=O)C([C@@]3(C)CC[C@H](O)CC3=O)CC[C@@]21C (stereo partly shown) [4a, 3βHydroxy-5-oxo-5,6-secocholestan-6-al]",efficiently taken up by macrophages even when not complexed with LDL
3,"CC(C)CCC[C@@H](C)[C@H]1CCC2C3C(CC[C@@]21C)[C@@]1(C)CC[C@H](O)C[C@@]1(O)[C@@H]3C=O (stereo partly drawn) [5a, 3β-Hydroxy-5β-hydroxy-B-norcholestane-6βcarboxaldehyde]",efficiently taken up by macrophages even when not complexed with LDL
4,C[C@H](CCCC(=O)NS(=O)(=O)c1cccc2c(N(C)C)cccc12)[C@H]1CCC2C3C(CC[C@@]21C)C1(C)CC[C@H](O)CC1(O)[C@@H]3C=O (stereo partly shown) [5e],initial punctate cytosolic accumulation
